# Measured values published in paper PMC5640428.
# No constants are given. Whether binding was seen depends on the method and setting. In cells and extracts the contact can be indirect. Here binding means that the protein was enriched with, or labelled near, the bait; the list need not be complete.
# B1: SLC1A3 (protein, UniProt P56564 1-543)
# chain: MTKSNGEEPRMGGRMERLQQGVRKRTLLAKKKVQSLTKEDVKSYLFRNAFVLLTVTAVIVGTILGFALRPYKMSYREVKYFSFPGELLMRMLQMLVLPLIISSLVTGMAALDSKASGKMGMRAVVYYMTTTIIAVVIGIIIVIIIHPGKGTKENMYREGKIVQVTAADAFLDLIRNMFPPNLVEACFKQFKTSYEKRSFKVPIQSNETLLGAVINNVSEAMETLTRIREEMVPVPGSVNGVNALGLVVFSMCFGFVIGNMKEQGQALREFFDSLNEAIMRLVAVIMWYAPLGILFLIAGKIVEMEDMGVIGGQLAMYTVTVIVGLLIHAVIVLPLLYFLVTRKNPWVFIGGLLQALITALGTSSSSATLPITFKCLEENNGVDKRITRFVLPVGATINMDGTALYEALAAIFIAQVNNFDLNFGQIITISITATAASIGAAGIPQAGLVTMVIVLTSVGLPTDDITLIIAVDWFLDRLRTTTNVLGDSLGAGIVEHLSRHELKNRDVEMGNSVIEENEMKKPYQLIAQDNEPEKPVADSETKM
# B2: CAPRIN1 (protein, UniProt Q60865 1-707)
# chain: MPSATSHSGSGSKSSGPPPPSGSSGSEAAAGAAAPASQHPATGTGAVQTEAMKQILGVIDKKLRNLEKKKGKLDDYQERMNKGERLNQDQLDAVSKYQEVTNNLEFAKELQRSFMALSQDIQKTIKKTARREQLMREEAEQKRLKTVLELQYVLDKLGDDDVRTDLKQGLSGVPILSEEELSLLDEFYKLVDPERDMSLRLNEQYEHASIHLWDLLEGKEKPVCGTTYKALKEIVERVFQSNYFDSTHNHQNGLCEEEEAASAPTVEDQVAEAEPEPAEEYTEQSEVESTEYVNRQFMAETQFSSGEKEQVDEWTVETVEVVNSLQQQPQAASPSVPEPHSLTPVAQSDPLVRRQRVQDLMAQMQGPYNFIQDSMLDFENQTLDPAIVSAQPMNPTQNMDMPQLVCPQVHSESRLAQSNQVPVQPEATQVPLVSSTSEGYTASQPLYQPSHATEQRPQKEPMDQIQATISLNTDQTTASSSLPAASQPQVFQAGTSKPLHSSGINVNAAPFQSMQTVFNMNAPVPPANEPETLKQQSQYQATYNQSFSSQPHQVEQTELQQDQLQTVVGTYHGSQDQPHQVPGNHQQPPQQNTGFPRSSQPYYNSRGVSRGGSRGARGLMNGYRGPANGFRGGYDGYRPSFSNTPNSGYSQSQFTAPRDYSGYQRDGYQQNFKRGSGQSGPRGAPRGRGGPPRPNRGMPQMNTQQVN
# B3: NEFM (protein, UniProt P08553 1-848)
# chain: MSYTLDSLGNPSAYRRVTETRSSFSRVSGSPSSGFRSQSWSRGSPSTVSSSYKRSALAPRLAYSSAMLSSAESSLDFSQSSSLLNGGSGGDYKLSRSNEKEQLQGLNDRFAGYIEKVHYLEQQNKEIEAEIQALRQKQASHAQLGDAYDQEIRELRATLEMVNHEKAQVQLDSDHLEEDIHRLKERFEEEARLRDDTEAAIRALRKDIEESSMVKVELDKKVQSLQDEVAFLRSNHEEEVADLLAQIQASHITVERKDYLKTDISTALKEIRSQLECHSDQNMHQAEEWFKCRYAKLTEAAEQNKEAIRSAKEEIAEYRRQLQSKSIELESVRGTKESLERQLSDIEERHNHDLSSYQDTIQQLENELRGTKWEMARHLREYQDLLNVKMALDIEIAAYRKLLEGEETRFSTFSGSITGPLYTHRQPSVTISSKIQKTKVEAPKLKVQHKFVEEIIEETKVEDEKSEMEETLTAIAEELAASAKEEKEEAEEKEEEPEAEKSPVKSPEAKEEEEEGEKEEEEEGQEEEEEEDEGVKSDQAEEGGSEKEGSSEKDEGEQEEEEGETEAEGEGEEAEAKEEKKIEGKVEEVAVKEEIKVEKPEKAKSPMPKSPVEEVKPKPEAKAGKGEQKEEEKVEEEKKEVTKESPKEEKVEKKEEKPKDVADKKKAESPVKEKAVEEVITISKSVKVSLEKDTKEEKPQPQEKVKEKAEEEGGSEEEGSDRSPQESKKEDIAINGEVEGKEEEEQETQEKGSGREEEKGVVTNGLDVSPAEEKKGEDSSDDKVVVTKKVEKITSEGGDGATKYITKSVTVTQKVEEHEETFEEKLVSTKKVEKVTSHAIVKEVTQGD
# Biological target: T1, native KCC2 (K+-Cl- cotransporter KCC2) (mouse (endogenous in brain)) (UniProt Q91V14)
# T1 sequence: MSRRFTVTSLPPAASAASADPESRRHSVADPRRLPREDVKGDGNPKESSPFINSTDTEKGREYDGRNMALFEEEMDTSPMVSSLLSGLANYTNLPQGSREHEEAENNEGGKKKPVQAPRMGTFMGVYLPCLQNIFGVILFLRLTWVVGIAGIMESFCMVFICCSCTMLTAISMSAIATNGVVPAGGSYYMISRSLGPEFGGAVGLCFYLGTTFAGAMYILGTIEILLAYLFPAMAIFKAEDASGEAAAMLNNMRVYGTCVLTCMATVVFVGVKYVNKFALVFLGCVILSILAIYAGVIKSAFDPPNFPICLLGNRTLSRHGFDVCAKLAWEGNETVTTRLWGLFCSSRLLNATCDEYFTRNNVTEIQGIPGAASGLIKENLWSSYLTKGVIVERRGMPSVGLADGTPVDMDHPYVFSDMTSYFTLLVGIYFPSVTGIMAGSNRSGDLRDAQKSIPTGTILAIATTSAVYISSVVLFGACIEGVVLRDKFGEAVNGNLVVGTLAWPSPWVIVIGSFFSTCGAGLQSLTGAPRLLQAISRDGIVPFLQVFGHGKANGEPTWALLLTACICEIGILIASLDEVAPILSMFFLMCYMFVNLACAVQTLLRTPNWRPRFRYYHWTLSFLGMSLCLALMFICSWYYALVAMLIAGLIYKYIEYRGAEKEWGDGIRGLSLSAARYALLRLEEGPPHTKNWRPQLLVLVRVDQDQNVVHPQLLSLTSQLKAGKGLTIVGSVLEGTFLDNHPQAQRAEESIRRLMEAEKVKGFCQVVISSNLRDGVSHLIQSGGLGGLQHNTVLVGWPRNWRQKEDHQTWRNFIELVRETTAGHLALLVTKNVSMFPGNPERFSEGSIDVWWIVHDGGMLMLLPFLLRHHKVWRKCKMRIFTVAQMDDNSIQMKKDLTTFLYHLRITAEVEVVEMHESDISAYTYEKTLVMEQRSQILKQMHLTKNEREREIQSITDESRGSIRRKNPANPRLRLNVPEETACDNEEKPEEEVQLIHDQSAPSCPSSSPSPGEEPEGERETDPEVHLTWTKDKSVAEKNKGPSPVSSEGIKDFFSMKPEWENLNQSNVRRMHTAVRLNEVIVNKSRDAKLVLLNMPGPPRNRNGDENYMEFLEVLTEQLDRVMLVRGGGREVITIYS
# Test: affinity purification with mass spectrometry; anti-KCC2 antibodies (C-terminal, N-terminal KCC2b, pS940) cross-linked with DMP to GammaBind IgG beads; C12E9-solubilised whole-brain membrane fractions of P5 and P50 mice; 4 hr, 4°C; parallel IgG/IgY controls
row,Binder,binding
1,B1,binds
2,B2,binds
3,B3,binds
